Data as given in PubChem BioAssay AID1053208 (Peter MacCallum Cancer Centre, 2014)

- Test: 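Find knock-downs that sensitise mouse osteosarcoma cells to doxorubicin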 (primary screen)
- System: mouse osteosarcoma cells, early-passage culture from an engineered mouse model of fibroblastic bone tumour
- Knock-down reagent: siRNA pool against mouse genes, 40 nM
- Time to read-out: about 120 h (48 h before drug, then 72 h with drug)
- Conditions: doxorubicin 100 nM for 72 h, roughly 30-40% inhibitory dose
- Measured: 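Viability read as ATP luminescence after 72 h of 100 nM doxorubicin or none, duplicate wells averaged, scaled to non-targeting siRNA, then expressed as robust z-scores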
- Direction: viability z-score with doxorubicin: higher = more viable cells under doxorubicin; viability z-score without drug: higher = more viable cells with knock-down alone
- Hit rule: 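a pool counts as active when its viability z-score with doxorubicin is -2 or below and its z-score without drug lies between -2 and 2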
Here is one part, drawn at random, of about 17,000 reagents tested. 788 of them (4.7%) count as active. 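Calls rest on z-score classes alone; an extra cut-off of viability at most 70% of control was not applied to them.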 Not all columns of the deposit are shown.

With knock-down of Cacng3, the record shows combined z-score class no change with or without drug; viability z-score with doxorubicin 0.34; viability z-score without drug 1.69; inactive.
Silencing of Rln3 resulted in: combined z-score class no change with or without drug; viability z-score with doxorubicin -0.45; viability z-score without drug 0.34; inactive.
With knock-down of Syt10, the record shows combined z-score class low cell count without drug only; viability z-score with doxorubicin -1.91; viability z-score without drug -7.93; inactive.
Or9g8 gave combined z-score class no change with or without drug; viability z-score with doxorubicin -0.45; viability z-score without drug 0.17; inactive.
Gmppa scored combined z-score class no change with or without drug; viability z-score with doxorubicin 0.22; viability z-score without drug -0.17; inactive.

Look-ups from above:
Entry of Or9g8 under “viability z-score with doxorubicin”: -0.45
Under “viability z-score with doxorubicin”, Cacng3 is entered as 0.34

Next entries follow.
After knock-down of Lce1f, the record shows combined z-score class no change with or without drug; viability z-score with doxorubicin -0.67; viability z-score without drug 0.34; inactive.
With knock-down of Scg2, the record shows combined z-score class high cell count with and without drug; viability z-score with doxorubicin 2.02; viability z-score without drug 2.87; inactive.
Hsp90aa1 scored combined z-score class no change with or without drug; viability z-score with doxorubicin 0.79; viability z-score without drug -0.51; inactive.
Depletion of Acyp1 resulted in: combined z-score class no change with or without drug; viability z-score with doxorubicin 0.22; viability z-score without drug 0.51; inactive.
Against Ctps1, the entry reads combined z-score class no change with or without drug; viability z-score with doxorubicin 1.01; viability z-score without drug 0.17; inactive.
Silencing of Sp1 resulted in: combined z-score class no change with or without drug; viability z-score with doxorubicin -0.45; viability z-score without drug 0.51; inactive.
Pard6a scored combined z-score class no change with or without drug; viability z-score with doxorubicin 0.22; viability z-score without drug 1.35; inactive.
